Experimental data from patent publication US20200291121A1.
These are yes or no findings as the source states them, for the method shown. Some binding calls cover weakened binding; strength is not graded here.

Chains of the proteins cited; added tags and fusions are not shown. Lines headed by an entry give the natural chain unless they say otherwise; changes in a name come on top. A line that says so, or that is headed by a name, gives the form on record, which may keep a tag or linker.
cynomolgus monkey IL-5Rα, recombinant extracellular domain (C3VEW9, form named): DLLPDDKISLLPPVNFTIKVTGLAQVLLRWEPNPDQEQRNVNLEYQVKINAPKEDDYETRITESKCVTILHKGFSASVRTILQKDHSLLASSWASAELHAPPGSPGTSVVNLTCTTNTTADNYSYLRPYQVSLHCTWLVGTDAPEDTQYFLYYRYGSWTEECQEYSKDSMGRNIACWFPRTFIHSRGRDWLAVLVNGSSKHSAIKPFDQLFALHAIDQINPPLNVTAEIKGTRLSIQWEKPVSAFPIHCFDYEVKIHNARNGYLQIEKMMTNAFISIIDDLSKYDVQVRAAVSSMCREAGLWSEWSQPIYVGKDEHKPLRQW

Biological target: cynomolgus monkey IL-5Rα, recombinant extracellular domain (cynomolgus monkey) (UniProt C3VEW9)
Experiment: BLI (Octet RED 384), antibody immobilised on AR2G sensors

binding: binds
B1: BCD133-03-021 (antibody, human IgG1, kappa, V domains shown)
VH: QVQLQESGGGLVQPGGSLRLSCAASGFTFSNYAMSWVRQAPGKGLEWVSAINSGGKSTNYADSVKGRFTISRDNAKNTLYLQMNSLRAEDTAVYYCADYATNYGVPYFGSWGQGTMVTVSS
VL: QSVLTQPPSVSAAPGQRVTISCSGSRSNIGSGYDVHWYQQLPGTAPKLLIYDDNNRPSGVPDRFSGSKSGTSASLAITGLQAEDEADYYCQSYDSSLSGHVVFGGGTKLTVLR
